Data from paper doi:10.1101/2025.04.28.651057.
Results are given in words; binding and its absence hold for the method and conditions named. In cells and extracts the contact can be indirect. Some binding calls cover weakened binding; strength is not graded here. For part of these data: Tags and fused reporters may be left off the sequences shown.

Chains of the proteins cited; added tags and fusions are not shown.
UniProt P59268: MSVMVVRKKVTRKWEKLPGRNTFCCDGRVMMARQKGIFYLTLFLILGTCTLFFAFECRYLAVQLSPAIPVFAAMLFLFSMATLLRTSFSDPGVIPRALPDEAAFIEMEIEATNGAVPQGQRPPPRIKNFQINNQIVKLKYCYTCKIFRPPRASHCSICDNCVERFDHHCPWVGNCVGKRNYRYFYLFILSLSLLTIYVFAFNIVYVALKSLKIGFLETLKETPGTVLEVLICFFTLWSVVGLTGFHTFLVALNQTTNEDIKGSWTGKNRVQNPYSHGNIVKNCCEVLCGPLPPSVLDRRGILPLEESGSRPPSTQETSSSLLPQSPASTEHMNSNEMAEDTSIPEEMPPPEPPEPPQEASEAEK
UniProt Q7Z5G4: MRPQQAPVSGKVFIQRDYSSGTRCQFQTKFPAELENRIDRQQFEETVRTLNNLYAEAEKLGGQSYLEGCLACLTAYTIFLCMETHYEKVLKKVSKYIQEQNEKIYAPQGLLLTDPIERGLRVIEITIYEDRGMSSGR

Key:
Assay in all cases: co-IP
[1] = biological target: T1, HA-Zdhhc24 (mouse) (mouse) (UniProt Q6IR37)
T1 sequence: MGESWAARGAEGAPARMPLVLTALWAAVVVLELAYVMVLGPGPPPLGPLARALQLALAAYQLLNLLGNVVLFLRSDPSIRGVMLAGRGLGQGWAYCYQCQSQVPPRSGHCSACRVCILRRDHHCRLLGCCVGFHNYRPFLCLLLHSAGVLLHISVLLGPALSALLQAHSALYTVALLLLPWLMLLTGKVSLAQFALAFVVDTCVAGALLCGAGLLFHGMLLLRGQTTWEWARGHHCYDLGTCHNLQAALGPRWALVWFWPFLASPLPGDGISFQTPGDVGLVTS

[2] = biological target: HA-Zdhhc9 (mouse) (mouse) (UniProt P59268)
[3] = biological target: T2, HA-Zdhhc3 (mouse) (mouse) (UniProt Q8R173)
T2 sequence: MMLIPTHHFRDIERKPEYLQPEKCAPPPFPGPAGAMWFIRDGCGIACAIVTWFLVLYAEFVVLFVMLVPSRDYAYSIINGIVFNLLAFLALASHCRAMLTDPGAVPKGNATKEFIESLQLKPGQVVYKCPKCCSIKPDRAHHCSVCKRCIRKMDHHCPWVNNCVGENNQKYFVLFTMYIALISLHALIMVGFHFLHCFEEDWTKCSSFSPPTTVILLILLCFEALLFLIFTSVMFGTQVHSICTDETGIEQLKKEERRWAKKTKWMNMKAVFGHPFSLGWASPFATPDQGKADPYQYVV

[4] = biological target: T3, HA-Zdhhc15 (mouse) (mouse) (UniProt Q8BGJ0)
T3 sequence: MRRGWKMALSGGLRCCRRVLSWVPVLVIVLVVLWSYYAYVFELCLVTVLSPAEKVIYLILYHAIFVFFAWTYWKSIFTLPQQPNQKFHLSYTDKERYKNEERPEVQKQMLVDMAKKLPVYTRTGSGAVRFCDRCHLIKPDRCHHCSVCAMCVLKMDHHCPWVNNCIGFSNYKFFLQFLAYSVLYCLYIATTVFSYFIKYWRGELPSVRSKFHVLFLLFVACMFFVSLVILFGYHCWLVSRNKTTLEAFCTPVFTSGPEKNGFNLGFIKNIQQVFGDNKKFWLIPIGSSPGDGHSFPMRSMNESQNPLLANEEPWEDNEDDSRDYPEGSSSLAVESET

[5] = biological target: T4, HA-Zdhhc4 (mouse) (mouse) (UniProt Q9D6H5)
T4 sequence: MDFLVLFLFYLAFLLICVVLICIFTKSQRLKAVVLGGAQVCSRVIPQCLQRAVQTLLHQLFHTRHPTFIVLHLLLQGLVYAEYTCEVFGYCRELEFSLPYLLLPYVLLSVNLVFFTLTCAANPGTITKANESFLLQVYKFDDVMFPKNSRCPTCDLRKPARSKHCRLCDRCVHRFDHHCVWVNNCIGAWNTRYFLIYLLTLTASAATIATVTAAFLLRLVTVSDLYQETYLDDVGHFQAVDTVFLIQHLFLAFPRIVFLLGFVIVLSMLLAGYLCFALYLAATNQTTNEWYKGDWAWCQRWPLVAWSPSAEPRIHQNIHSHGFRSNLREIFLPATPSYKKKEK

[6] = biological target: T5, HA-Zdhhc13 (mouse) (mouse) (UniProt Q9CWU2)
T5 sequence: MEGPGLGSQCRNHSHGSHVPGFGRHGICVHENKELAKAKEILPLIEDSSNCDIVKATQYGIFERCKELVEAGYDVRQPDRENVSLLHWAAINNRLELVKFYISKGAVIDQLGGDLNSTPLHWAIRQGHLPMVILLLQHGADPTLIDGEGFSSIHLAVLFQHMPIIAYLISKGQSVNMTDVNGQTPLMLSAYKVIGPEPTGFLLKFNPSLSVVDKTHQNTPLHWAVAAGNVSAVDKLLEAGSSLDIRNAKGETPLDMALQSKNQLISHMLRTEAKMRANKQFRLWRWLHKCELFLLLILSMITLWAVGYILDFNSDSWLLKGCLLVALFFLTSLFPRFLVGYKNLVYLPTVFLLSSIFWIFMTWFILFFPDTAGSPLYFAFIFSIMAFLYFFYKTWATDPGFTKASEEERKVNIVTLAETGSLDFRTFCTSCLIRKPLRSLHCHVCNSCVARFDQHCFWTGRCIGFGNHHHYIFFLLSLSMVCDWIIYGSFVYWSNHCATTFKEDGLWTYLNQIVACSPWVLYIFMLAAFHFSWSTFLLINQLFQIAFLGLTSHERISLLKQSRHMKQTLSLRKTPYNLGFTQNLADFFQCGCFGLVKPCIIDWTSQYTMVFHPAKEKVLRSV

binding [1]: no binding
binding [2]: binds
binding [3]: no binding
binding [4]: no binding
binding [5]: no binding
binding [6]: no binding
Substance: endogenous human GOLGA7 (from UniProt Q7Z5G4 1-137)
